Experimental data from PubChem BioAssay AID1347075 (National Center for Advancing Translational Sciences (NCATS), 2019).
“And” between values parts separate entries of the source, which are not always exact repeats. Equal values may be shown once. About 5,500 (1.4%) of roughly 400,000 compounds were called active. This list was built around the results that the source calls inconclusive (neither active nor inactive); the mix of calls is not that of the screen. The call rests on the fitted dose curve; in most records, active means well fitted cell-killing curve with a large enough effect; inconclusive means small, poorly fitted or top-dose-only effect, or effect the other way; inactive means flat fitted curve, though single readings scatter. Potencies beside an inconclusive call are fits to weak or partial responses and may not hold up. The source holds several records for some structures; these can differ, active in one and inactive in another.

experiment: qHTS assay for MDR1-selective chemotherapeutics: Primary screen using the parental adenocarcinoma cell KB-3-1; details: KB-3-1 viability, CellTiter-Glo ATP luminescence, 72 h; activity change, negative = cytotoxic: at 46.1 µM (top of the series); further: nearly all actives have a fitted effect of over 60% in size
How it was run: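 Multi-concentration cytotoxicity screen in KB-3-1 cells grown in DMEM lacking phenol red with 10% FBS. After 72 h at 37 °C with compound, ATP-dependent luminescence was recorded.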
On the % scale 0 is the no-effect control and ±100 the full control effect; potency means the concentration at half of the fitted maximal effect.

SMILES | activity change, negative = cytotoxic | Potency
Cc1ccc(S(=O)(=O)N(C)C[C@@H]2Oc3ncc(Br)cc3C(=O)N([C@H](C)CO)C[C@H]2C)cc1 | inactive: -3.68% | –
Nc1nc(Cl)nc2c1ncn2[C@H]1C[C@H](O)[C@@H](CO)O1 | – | inconclusive: 20.6 µM [cytotoxic, single point]
CC(NC(=O)COC(=O)c1cc(=O)c2ccccc2o1)c1ccccc1 (configuration not stated) | inactive: -10.3% | –
CC(C)Oc1ccc2c(c1)OC(c1ccccc1)(C(F)(F)F)NC2=O (configuration not stated) | – | inconclusive: 29.1 µM [cytotoxic, single point]
CCC(=O)OCc1cnc(C)c2oc(=O)c(C(=O)Nc3ccc(CC)cc3)cc12 | inactive: 0.972% | –
O=C(NCCC1=CCCCC1)C1CCN(C(=O)c2ccc(Br)cc2)CC1 | inactive: 1.8% | –
O=C(Nc1ccc(Oc2ccc(NC(=O)c3ccco3)c(NC(=O)c3ccco3)c2)cc1)c1ccco1 | inactive: -7.24% | –
O=C(CCCCN1CCCCC1)c1ccccc1 | inactive: -0.689% | –
COc1ccc(-n2c(Cc3cccn3C)nnc2SCC(=O)NCCc2ccccc2)cc1 | inactive: -5.19% | –
O=C(NC1CCCC1)C(c1ccccc1)n1c(-c2cccs2)nc2ccccc21 (configuration not stated) | – | inconclusive: 25.9 µM [cytotoxic, single point]
COc1ccc(C2=Nn3c(nnc3-c3ccccc3F)SC2)cc1OC1CCOC1 (configuration not stated) | – | active: 2.06 µM
CC(=O)NCC(=O)NC(Cc1ccccc1)C(N)=O (configuration not stated) | inactive: 2.83% | –
Nc1nc(-c2ccc(Cl)cc2)c(N=Nc2ccc(S(=O)(=O)N3CCOCC3)cc2)s1 | – | inconclusive: 9.2 µM [cytotoxic, partial curve, poor fit]
Cc1ccc(N2CC(C(=O)Nc3nccs3)CC2=O)cc1Cl (configuration not stated) | – | inconclusive: 29.1 µM [cytotoxic, single point]
Cc1ccc(NC(=O)C2(C)CCN2C(=O)Cc2ccc(-c3ccccc3)cc2)cc1 (configuration not stated) | – | inconclusive: 29.1 µM [cytotoxic, partial curve, poor fit]
CCCc1cc(-c2nc(-c3ccc(C)cc3)cs2)ccn1 | – | active: 11.6 µM
Cc1ccc(C(=O)N2CCN(c3ccc([N+](=O)[O-])c(NCc4cccnc4)c3)CC2)cc1 | inactive: -18.5% | –
O=C(Nc1ccc2c(c1)OCCO2)C(c1ccc(C(F)(F)F)cc1)n1c(=O)c(-c2cc3ccccc3[nH]2)nc2ccccc21 (configuration not stated) | inactive: 0.234% | –
Cc1ccc(NC(=O)C2=CCN(S(=O)(=O)c3ccc(F)cc3)CC2)cc1 | inactive: -1.58% | –
O=C(CSCC(=O)Nc1nc(-c2ccc3c(c2)OCO3)cs1)Nc1nccs1 | – | inconclusive: 32.6 µM [cytotoxic, single point]
CC(Sc1n[nH]c(-c2ccccc2F)n1)C(=O)Nc1ccc(S(N)(=O)=O)cc1 (configuration not stated) | – | inconclusive: 11.6 µM [rising, partial curve, poor fit]
CC(=O)Nc1cccc(NC(=O)CSc2ncc(-c3ccc(Cl)cc3)n2Cc2ccco2)c1 | – | inconclusive: 14.6 µM [cytotoxic, single point]
Cc1ccccc1OCC(O)Cn1c(=N)n(Cc2ccccc2)c2ccccc21 (configuration not stated) | – | inconclusive: 29.1 µM [cytotoxic, single point]
Cc1nn(-c2nc3ccccc3[nH]2)c(=O)c2ccccc12 | – | active: 1.3 µM

In another format: results already given
SMILES,"activity change, negative = cytotoxic",Potency
O=C(CCCCN1CCCCC1)c1ccccc1,inactive: -0.689%,–
COc1ccc(-n2c(Cc3cccn3C)nnc2SCC(=O)NCCc2ccccc2)cc1,inactive: -5.19%,–

Further structures follow:

SMILES | activity change, negative = cytotoxic | Potency
Fc1ccc(CCn2c(Cn3c(-c4cnccn4)nc4ccccc43)nc3ccccc32)cc1 | – | inconclusive: 58 µM [cytotoxic, full curve, poor fit]
NC(=O)[C@H]1CC2(CC(c3cccc(NC(=O)CC(c4ccccc4)c4ccccc4)c3)=NO2)CN1C(=O)C(c1ccccc1)c1ccccc1 (some centres not stated) | – | inconclusive: 20.6 µM [cytotoxic, partial curve]
CCOC(=O)N1CCN(c2nnc(-c3ccc(C)cc3)c3ccccc23)CC1 | inactive: -1.06% | –
COc1ccc(CCN(C(=O)c2snc(C(N)=O)c2N)C(C(=O)NCC2CCCO2)c2ccc(F)cc2)cc1OC (configuration not stated) | inactive: 20.7% | –
Cc1ccc(S(=O)(=O)N2CCOCC2)cc1NC(=O)CN1CCC(Cc2ccccc2)CC1 | – | active: 20.6 µM
Nc1nn(-c2ccccc2)c(N)c1N=Nc1ccccc1 | – | inconclusive: 2.91 µM [cytotoxic, partial curve, poor fit]
CC(C)(C)c1ccc(OCCNCc2ccccc2)cc1 | inactive: -0.616% | –
Cc1cccc(N(C)S(=O)(=O)c2ccc(-c3cc(C)no3)s2)c1 | – | inconclusive: 0.58 µM [cytotoxic, full curve, poor fit]
CCC1CCCCN1S(=O)(=O)c1ccc(C(=O)Nc2nnc(C3=COCCO3)o2)cc1 (configuration not stated) | – | inconclusive: 29.1 µM [cytotoxic, single point]
COc1cc2cc(/C=C/C(=O)c3ccco3)c(Cl)nc2cc1OC | – | inconclusive: 29.1 µM [cytotoxic, single point]
COCC(C)n1c(-c2ccc3c(c2)NC(=O)CO3)csc1=Nc1ccc(OC(F)F)cc1 (configuration not stated) | – | active: 9.2 µM and inconclusive: 23.1 µM [cytotoxic, single point]
O=C(NC(=S)Nc1ccc(Cl)cc1)c1cncc(Br)c1 | inconclusive: -0.987% | –
Cc1ccc2c(C)c(C(=O)N(Cc3ccc(F)cc3)C3CCS(=O)(=O)C3)oc2c1 (configuration not stated) | – | inconclusive: 18.4 µM [cytotoxic, single point]
Cc1onc(-c2ccccc2Cl)c1C(=O)NC1CCS(=O)(=O)C1 (configuration not stated) | inactive: 11.8% | –
CCCC1=[N+](CC(=O)c2ccccc2)CCn2c(C)ccc21 | – | inconclusive: 18.4 µM [cytotoxic, single point]
Cc1c(CCOC(=O)c2ccccc2)sc[n+]1CC(=O)c1ccc(Br)cc1 | – | inconclusive: 29.1 µM [cytotoxic, single point]
Cc1ccc(NS(=O)(=O)c2cc3c4c(cccc4c2)C(=O)NC3=O)cc1C | – | active: 14.6 µM
CCOC(=O)Cc1nn(Cc2nc(-c3ccc(C)cc3)cs2)c(=O)c2ccccc12 | inactive: -0.984% | –
O=C(COC(=O)Cc1ccc(Cl)cc1Cl)NC1CC1 | – | inconclusive: 2.31 µM [rising, partial curve, poor fit]
COc1cc2c(cc1OC)C(C)N(C(=O)c1c(C)noc1C)CC2 (configuration not stated) | – | inconclusive: 29.1 µM [cytotoxic, single point]
O=C(C[C@@H]1C/C=C\CCC(=O)OC[C@@H]2CCCN2C1=O)N[C@@H](CO)Cc1ccccc1 | – | inconclusive: 14.6 µM [rising, partial curve, poor fit]
COc1ccc(-c2nc(C)c(CCNC(=O)C(=O)Nc3ccccc3F)s2)cc1 | – | inconclusive: 29.1 µM [cytotoxic, single point]
COc1cccc(C(=O)Nc2nc3ccccc3[nH]2)c1 | – | inconclusive: 29.1 µM [cytotoxic, single point]
CCc1c(O)nc(SCC(=O)Nc2ccccc2OC)[nH]c1=O | – | inconclusive: 18.4 µM [cytotoxic, single point]

Whole records from above:
CCc1c(O)nc(SCC(=O)Nc2ccccc2OC)[nH]c1=O is listed with Potency: inconclusive: 18.4 µM [cytotoxic, single point]
CCOC(=O)N1CCN(c2nnc(-c3ccc(C)cc3)c3ccccc23)CC1 is listed with activity change, negative = cytotoxic: inactive: -1.06%

Continuation:

SMILES | activity change, negative = cytotoxic | Potency
CCOC(=O)C1CCN(C(=O)c2ccc3c(c2)NC(=O)/C(=C/c2ccccc2)S3)CC1 | inactive: -0.902% | –
CC1(C(=O)Nc2ccccc2Cc2ccccc2)CCN1CCc1ccccc1 (configuration not stated) | – | inconclusive: 23.1 µM [cytotoxic, single point]
CN(c1ccccc1C(=O)Nc1cccc(Cl)c1Cl)S(C)(=O)=O | inactive: 2.36% | –
COCCn1c(=O)[nH]c2cc(C(=O)N3CCN(c4ccc(Cl)cc4)CC3)ccc2c1=O | – | active: 14.6 µM
CN(CCCNC(=O)c1cc2c(=O)[nH]c3ccccc3c2n1C)Cc1ccccc1 | inactive: -1.75% | –
CCc1nc2nc(C)c(NS(=O)(=O)c3ccc(Cl)s3)c(=O)n2[nH]1 | inconclusive: -31.9% [cytotoxic] | –
COc1ccc(C)cc1N(CC(=O)NCCSCc1cccc(Cl)c1)S(C)(=O)=O | inactive: -2.14% | –
Cc1ccc2nc(NC(=O)c3nc(SCc4ccccc4F)ncc3Cl)sc2c1 | inactive: 4.47% | –
CCOCCCNC(=O)CNC(=S)N(Cc1ccccc1F)C1CCCCC1 | inactive: -3.39% | –
COc1cccc2c3c(c(C)nc12)CC(C)O3 (configuration not stated) | inactive: 14.4% | –
O=C(COC(=O)c1cc([N+](=O)[O-])ccc1NCCO)c1ccccc1 | – | inconclusive: 14.6 µM [rising, partial curve]
COCCC(=O)N1CCOCC1c1cc(C(=O)Nc2ccccc2)no1 (configuration not stated) | – | inconclusive: 0.013 µM [rising, full curve]
Cc1nc(SCC(=O)Nc2ccccc2Cl)c2c(C)c(C)sc2n1 | – | inconclusive: 29.1 µM [cytotoxic, single point]
CCC/C(O)=C1\C(=O)CC(C)(C)CC1=Nc1ccc(OC)cc1OC | – | inconclusive: 29.1 µM [cytotoxic, single point]
Cc1ccnc(NS(=O)(=O)c2cccc([N+](=O)[O-])c2)c1 | inactive: -0.084% | –
O=C1C(NS(=O)(=O)c2cccs2)=C(N2CCN(c3cccc(C(F)(F)F)c3)CC2)C(=O)c2ccccc21 | – | inconclusive: 29.1 µM [cytotoxic, single point]
CCOC(=O)N1CCC(NC(=O)c2cnn(-c3ccc(F)cc3)c2-n2cccc2)CC1 | inactive: 2.67% | –
COc1ccc(NC(=O)c2ccc(Cl)nc2)cc1S(=O)(=O)N1CCOCC1 | – | inconclusive: 29.1 µM [cytotoxic, single point]
COc1ccccc1Cn1c(=S)[nH]c2cc(C(=O)N3CCCC(C)C3)ccc2c1=O (configuration not stated) | – | active: 20.6 µM
CCN(CC)c1cc(C)c2cc(NC(=O)/C=C/c3ccccc3Cl)ccc2n1 | – | active: 13 µM
COc1ccc(NC(=O)CSc2nc3c(cc2C#N)CN(C)CC3)cc1 | inactive: 4.46% | –
O=c1c(N2CCN(c3ccccc3)CC2)csc2ccc(Cl)cc12 | inactive: -1.39% | –
CC1C/C(=C/c2ccccn2)C(=O)/C(=C/c2ccccn2)C1 (configuration not stated) | – | inconclusive: 29.1 µM [cytotoxic, single point]
CCOCCn1ccc2c(OCC(=O)NCc3ccc(F)cc3)cccc2c1=O | inactive: 1.72% | –
